Source: patent US20110305715A1, “ANTIBODIES TO 3-HYDROXYCOTININE AND METHODS OF USE THEREOF” (priority 2010, published 2011)
Some of these results come from one statement about several compounds together. At least one structure is not confirmed: it was looked up by name or label, or the drawing left a doubt.

Tested on: 3-Hydroxycotinine MAb 22H9C7
Assay: Competitive microplate ELISA (test principle #1) with immobilized 3HC MAb and 3HC-HRP tracer
Details: for Reactivity (%): calculated from IC50 values, 3-Hydroxycotinine MAb 22H9C7; for IC50: competitor vs 3HC-HRP for 3-Hydroxycotinine MAb 22H9C7
[1] = listed as 3-hydroxycotinine-glucuronide

Structure (SMILES)	IC50	further results
CN1C(=O)C(O[C@@H]2O[C@H](C(=O)O)[C@@H](O)[C@H](O)[C@H]2O)CC1c1cccnc1 (stereo partly shown) [3-Hydroxycotinine-gluconuride, 3-hydroxycotinine-glucuronide]		Reactivity (%) [1]: less than 1%; IC50 [1]: > 5,000 ng/mL
CN1C(=O)CC[C@@]1(O)c1cccnc1 [5-Hydroxycotinine]		Reactivity (%) (listed as 5-hydroxycotinine): less than 1%; IC50 (listed as 5-hydroxycotinine): > 5,000 ng/mL
c1cncc(C2=NCCCC2)c1 [Anabaseine]	> 5,000 ng/mL	
C1=CCC(c2cccnc2)NC1 (stereo not shown) [Anatabine]	> 5,000 ng/mL	
CN1C(=O)CC[C@H]1c1ccc[n+]([O-])c1 [Cotinine-N-Oxide, cotinine-N-oxide]		Reactivity (%) (listed as cotinine-N-oxide): less than 1%; IC50 (listed as cotinine-N-oxide): > 5,000 ng/mL
c1cncc(C2=NCCC2)c1 [Myosmine]	> 5,000 ng/mL	
c1cncc(-c2ccnc(-c3cccnc3)c2)c1 [Nicotelline]	> 5,000 ng/mL	
Cn1cccc1-c1cccnc1 [Nicotyrine]	> 5,000 ng/mL	
O=C1CCC(c2cccnc2)N1 (stereo not shown) [Norcotinine]	> 5,000 ng/mL	
c1cncc([C@@H]2CCCN2)c1 [Nornicotine]	> 5,000 ng/mL	
